System: gut microbiome
Assay: Gut microbiome, 16S rRNA sequencing of rectal swabs at baseline and after 2 weeks
Format: in vivo, human
Details: consistent across V1-V2 and V3-V4

Which Roseburia abundance does the source give for `COc1cc(/C=C/C(=O)CC(=O)/C=C/c2ccc(O)c(OC)c2)ccc1O` [Curcumin, curcumin] here?
The Roseburia abundance was “reduction in Rosburia”.
